No constants are given. Whether binding was seen depends on the method and setting. In cells and extracts the contact can be indirect. These calls come from enrichment with a bait or labelling near it, and not all partners need be listed. Tags and fused reporters may be left off the sequences shown. One block for each molecule: values may come before it.
Biological target: T1, GFP-SNX21 (N-terminal GFP-tagged full-length human sorting nexin-21) (human) (UniProt Q969T3)
T1 sequence: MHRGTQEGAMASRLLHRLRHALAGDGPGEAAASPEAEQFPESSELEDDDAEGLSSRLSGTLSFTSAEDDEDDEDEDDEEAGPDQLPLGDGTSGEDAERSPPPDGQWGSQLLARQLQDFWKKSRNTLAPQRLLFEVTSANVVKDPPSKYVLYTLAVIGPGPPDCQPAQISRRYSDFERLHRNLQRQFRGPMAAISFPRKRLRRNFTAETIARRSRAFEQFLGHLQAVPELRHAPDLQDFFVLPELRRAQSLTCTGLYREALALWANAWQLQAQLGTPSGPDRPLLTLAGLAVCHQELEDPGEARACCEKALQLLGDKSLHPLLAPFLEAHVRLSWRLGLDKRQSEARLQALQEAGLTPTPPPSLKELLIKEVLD
Experiment: affinity purification with mass spectrometry; SILAC: GFP-nanotrap precipitation of GFP-SNX21 (R6K4) against GFP (R0K0) from virally transduced RPE1 cells, 1 h at 4°C, 50 mM Tris-HCl pH 7.4, 0.5% NP40; precipitates pooled, SDS-PAGE, LC-MS/MS

Chains of the proteins cited; added tags and fusions are not shown.
UniProt P42858: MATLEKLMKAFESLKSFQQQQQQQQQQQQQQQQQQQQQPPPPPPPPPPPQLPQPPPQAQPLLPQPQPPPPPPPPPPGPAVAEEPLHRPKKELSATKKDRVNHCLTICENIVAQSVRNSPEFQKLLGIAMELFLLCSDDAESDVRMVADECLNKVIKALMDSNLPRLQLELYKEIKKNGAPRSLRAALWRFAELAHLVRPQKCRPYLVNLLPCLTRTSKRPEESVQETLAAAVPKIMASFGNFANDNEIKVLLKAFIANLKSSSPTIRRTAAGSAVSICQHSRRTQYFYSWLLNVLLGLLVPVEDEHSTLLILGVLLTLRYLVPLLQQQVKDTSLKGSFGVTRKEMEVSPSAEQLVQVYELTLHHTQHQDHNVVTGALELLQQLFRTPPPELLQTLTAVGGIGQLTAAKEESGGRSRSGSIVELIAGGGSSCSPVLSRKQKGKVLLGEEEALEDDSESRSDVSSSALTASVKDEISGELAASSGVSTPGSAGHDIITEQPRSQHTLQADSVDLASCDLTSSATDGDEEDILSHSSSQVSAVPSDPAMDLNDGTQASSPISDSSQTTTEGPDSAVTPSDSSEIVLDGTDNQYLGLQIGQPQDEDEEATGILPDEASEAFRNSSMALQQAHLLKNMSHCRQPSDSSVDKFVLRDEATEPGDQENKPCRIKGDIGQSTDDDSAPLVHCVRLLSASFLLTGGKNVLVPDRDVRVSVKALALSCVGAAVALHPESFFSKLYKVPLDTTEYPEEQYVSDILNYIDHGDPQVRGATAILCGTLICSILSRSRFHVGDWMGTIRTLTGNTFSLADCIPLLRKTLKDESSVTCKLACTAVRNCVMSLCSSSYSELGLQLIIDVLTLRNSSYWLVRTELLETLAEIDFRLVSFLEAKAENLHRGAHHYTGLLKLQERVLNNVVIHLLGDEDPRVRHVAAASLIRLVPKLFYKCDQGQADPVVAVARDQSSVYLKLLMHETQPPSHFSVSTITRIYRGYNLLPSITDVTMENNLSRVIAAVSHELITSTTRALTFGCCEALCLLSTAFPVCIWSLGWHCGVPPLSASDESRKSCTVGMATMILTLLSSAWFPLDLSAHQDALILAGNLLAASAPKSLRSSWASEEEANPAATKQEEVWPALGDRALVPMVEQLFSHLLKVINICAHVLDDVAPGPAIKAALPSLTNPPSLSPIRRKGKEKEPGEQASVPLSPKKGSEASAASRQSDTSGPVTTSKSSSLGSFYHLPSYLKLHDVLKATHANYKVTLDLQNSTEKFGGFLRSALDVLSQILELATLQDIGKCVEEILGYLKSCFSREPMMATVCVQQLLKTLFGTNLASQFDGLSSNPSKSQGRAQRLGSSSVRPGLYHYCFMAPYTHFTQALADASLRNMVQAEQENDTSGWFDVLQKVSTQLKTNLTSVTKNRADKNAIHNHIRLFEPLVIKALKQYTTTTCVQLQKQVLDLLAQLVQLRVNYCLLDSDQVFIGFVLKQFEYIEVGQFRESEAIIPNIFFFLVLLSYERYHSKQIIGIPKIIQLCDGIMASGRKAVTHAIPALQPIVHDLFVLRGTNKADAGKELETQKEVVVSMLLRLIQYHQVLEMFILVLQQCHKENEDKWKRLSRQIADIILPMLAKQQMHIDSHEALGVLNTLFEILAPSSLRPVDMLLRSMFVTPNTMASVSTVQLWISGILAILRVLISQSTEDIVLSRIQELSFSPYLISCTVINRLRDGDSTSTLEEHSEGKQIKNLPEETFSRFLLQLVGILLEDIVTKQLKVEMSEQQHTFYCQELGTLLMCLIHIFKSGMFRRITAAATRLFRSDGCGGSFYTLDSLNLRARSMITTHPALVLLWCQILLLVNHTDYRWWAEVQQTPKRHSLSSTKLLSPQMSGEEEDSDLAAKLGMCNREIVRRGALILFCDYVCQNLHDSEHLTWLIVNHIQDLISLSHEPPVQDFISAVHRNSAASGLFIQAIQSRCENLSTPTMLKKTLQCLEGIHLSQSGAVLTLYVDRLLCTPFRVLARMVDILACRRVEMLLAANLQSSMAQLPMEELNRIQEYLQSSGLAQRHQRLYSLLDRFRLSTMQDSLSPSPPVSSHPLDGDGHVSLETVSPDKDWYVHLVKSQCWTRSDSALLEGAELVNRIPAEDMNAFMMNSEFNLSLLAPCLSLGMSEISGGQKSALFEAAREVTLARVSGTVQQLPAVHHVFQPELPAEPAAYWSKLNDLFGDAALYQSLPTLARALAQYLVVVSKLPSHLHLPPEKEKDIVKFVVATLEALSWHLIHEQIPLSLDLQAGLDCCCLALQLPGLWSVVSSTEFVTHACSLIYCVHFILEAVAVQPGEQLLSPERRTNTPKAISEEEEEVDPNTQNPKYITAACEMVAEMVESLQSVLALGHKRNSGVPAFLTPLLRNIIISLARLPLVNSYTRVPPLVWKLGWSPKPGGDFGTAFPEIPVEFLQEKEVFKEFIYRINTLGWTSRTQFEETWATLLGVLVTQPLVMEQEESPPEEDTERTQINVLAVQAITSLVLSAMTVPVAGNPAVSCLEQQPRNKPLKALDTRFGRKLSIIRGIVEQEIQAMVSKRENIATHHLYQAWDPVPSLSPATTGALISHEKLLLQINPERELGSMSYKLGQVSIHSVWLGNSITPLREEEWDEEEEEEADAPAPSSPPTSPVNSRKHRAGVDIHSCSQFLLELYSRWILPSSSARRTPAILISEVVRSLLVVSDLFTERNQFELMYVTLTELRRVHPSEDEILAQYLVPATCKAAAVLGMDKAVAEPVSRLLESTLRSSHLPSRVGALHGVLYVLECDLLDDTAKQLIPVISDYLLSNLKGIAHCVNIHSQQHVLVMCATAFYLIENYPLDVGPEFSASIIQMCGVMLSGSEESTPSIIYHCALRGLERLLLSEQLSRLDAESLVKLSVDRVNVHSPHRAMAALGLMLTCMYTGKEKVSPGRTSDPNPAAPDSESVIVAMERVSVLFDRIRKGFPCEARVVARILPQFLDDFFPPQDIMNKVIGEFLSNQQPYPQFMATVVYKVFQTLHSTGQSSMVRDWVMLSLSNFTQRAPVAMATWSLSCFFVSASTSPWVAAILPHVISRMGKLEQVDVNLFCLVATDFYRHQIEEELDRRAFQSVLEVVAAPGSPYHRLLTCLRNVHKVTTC

binding: binds
Molecule: huntingtin (Htt), endogenous (from UniProt P42858 1-3142)

binding: binds
Molecule: sacsin, endogenous (from UniProt Q9NZJ4 1-4579)

binding: binds
B1: septin 8 (SEPT8), endogenous (protein, UniProt Q92599 1-483)
chain: MAATDLERFSNAEPEPRSLSLGGHVGFDSLPDQLVSKSVTQGFSFNILCVGETGIGKSTLMNTLFNTTFETEEASHHEACVRLRPQTYDLQESNVQLKLTIVDAVGFGDQINKDESYRPIVDYIDAQFENYLQEELKIRRSLFDYHDTRIHVCLYFITPTGHSLKSLDLVTMKKLDSKVNIIPIIAKADTISKSELHKFKIKIMGELVSNGVQIYQFPTDDEAVAEINAVMNAHLPFAVVGSTEEVKVGNKLVRARQYPWGVVQVENENHCDFVKLREMLIRVNMEDLREQTHSRHYELYRRCKLEEMGFQDSDGDSQPFSLQETYEAKRKEFLSELQRKEEEMRQMFVNKVKETELELKEKERELHEKFEHLKRVHQEEKRKVEEKRRELEEETNAFNRRKAAVEALQSQALHATSQQPLRKDKDKKNRSDIGAHQPGMSLSSSKVMMTKASVEPLNCSSWWPAIQCCSCLVRDATWREGFL

binding: binds
B2: septin 10 (SEPT10), endogenous (protein, UniProt Q9P0V9 1-454)
chain: MASSEVARHLLFQSHMATKTTCMSSQGSDDEQIKRENIRSLTMSGHVGFESLPDQLVNRSIQQGFCFNILCVGETGIGKSTLIDTLFNTNFEDYESSHFCPNVKLKAQTYELQESNVQLKLTIVNTVGFGDQINKEESYQPIVDYIDAQFEAYLQEELKIKRSLFTYHDSRIHVCLYFISPTGHSLKTLDLLTMKNLDSKVNIIPVIAKADTVSKTELQKFKIKLMSELVSNGVQIYQFPTDDDTIAKVNAAMNGQLPFAVVGSMDEVKVGNKMVKARQYPWGVVQVENENHCDFVKLREMLICTNMEDLREQTHTRHYELYRRCKLEEMGFTDVGPENKPVSVQETYEAKRHEFHGERQRKEEEMKQMFVQRVKEKEAILKEAERELQAKFEHLKRLHQEERMKLEEKRRLLEEEIIAFSKKKATSEIFHSQSFLATGSNLRKDKDRKNSNFL

binding: binds
B3: septin 7 (SEPT7), endogenous (protein, UniProt Q16181 1-437)
chain: MSVSARSAAAEERSVNSSTMVAQQKNLEGYVGFANLPNQVYRKSVKRGFEFTLMVVGESGLGKSTLINSLFLTDLYSPEYPGPSHRIKKTVQVEQSKVLIKEGGVQLLLTIVDTPGFGDAVDNSNCWQPVIDYIDSKFEDYLNAESRVNRRQMPDNRVQCCLYFIAPSGHGLKPLDIEFMKRLHEKVNIIPLIAKADTLTPEECQQFKKQIMKEIQEHKIKIYEFPETDDEEENKLVKKIKDRLPLAVVGSNTIIEVNGKRVRGRQYPWGVAEVENGEHCDFTILRNMLIRTHMQDLKDVTNNVHYENYRSRKLAAVTYNGVDNNKNKGQLTKSPLAQMEEERREHVAKMKKMEMEMEQVFEMKVKEKVQKLKDSEAELQRRHEQMKKNLEAQHKELEEKRRQFEDEKANWEAQQRILEQQNSSRTLEKNKKKGKIF

binding: binds
B4: septin 11 (SEPT11), endogenous (protein, UniProt Q9NVA2 1-429)
chain: MAVAVGRPSNEELRNLSLSGHVGFDSLPDQLVNKSTSQGFCFNILCVGETGIGKSTLMDTLFNTKFESDPATHNEPGVRLKARSYELQESNVRLKLTIVDTVGFGDQINKDDSYKPIVEYIDAQFEAYLQEELKIKRSLFNYHDTRIHACLYFIAPTGHSLKSLDLVTMKKLDSKVNIIPIIAKADTIAKNELHKFKSKIMSELVSNGVQIYQFPTDEETVAEINATMSVHLPFAVVGSTEEVKIGNKMAKARQYPWGVVQVENENHCDFVKLREMLIRVNMEDLREQTHTRHYELYRRCKLEEMGFKDTDPDSKPFSLQETYEAKRNEFLGELQKKEEEMRQMFVMRVKEKEAELKEAEKELHEKFDLLKRTHQEEKKKVEDKKKELEEEVNNFQKKKAAAQLLQSQAQQSGAQQTKKDKDKKNASFT

binding: binds
B5: septin 2 (SEPT2), endogenous (protein, UniProt Q15019 1-361)
chain: MSKQQPTQFINPETPGYVGFANLPNQVHRKSVKKGFEFTLMVVGESGLGKSTLINSLFLTDLYPERVIPGAAEKIERTVQIEASTVEIEERGVKLRLTVVDTPGYGDAINCRDCFKTIISYIDEQFERYLHDESGLNRRHIIDNRVHCCFYFISPFGHGLKPLDVAFMKAIHNKVNIVPVIAKADTLTLKERERLKKRILDEIEEHNIKIYHLPDAESDEDEDFKEQTRLLKASIPFSVVGSNQLIEAKGKKVRGRLYPWGVVEVENPEHNDFLKLRTMLITHMQDLQEVTQDLHYENFRSERLKRGGRKVENEDMNKDQILLEKEAELRRMQEMIARMQAQMQMQMQGGDGDGGALGHHV

binding: binds
B6: septin 6 (SEPT6), endogenous (protein, UniProt Q14141 1-434)
chain: MAATDIARQVGEGCRTVPLAGHVGFDSLPDQLVNKSVSQGFCFNILCVGETGLGKSTLMDTLFNTKFEGEPATHTQPGVQLQSNTYDLQESNVRLKLTIVSTVGFGDQINKEDSYKPIVEFIDAQFEAYLQEELKIRRVLHTYHDSRIHVCLYFIAPTGHSLKSLDLVTMKKLDSKVNIIPIIAKADAISKSELTKFKIKITSELVSNGVQIYQFPTDDESVAEINGTMNAHLPFAVIGSTEELKIGNKMMRARQYPWGTVQVENEAHCDFVKLREMLIRVNMEDLREQTHTRHYELYRRCKLEEMGFKDTDPDSKPFSLQETYEAKRNEFLGELQKKEEEMRQMFVQRVKEKEAELKEAEKELHEKFDRLKKLHQDEKKKLEDKKKSLDDEVNAFKQRKTAAELLQSQGSQAGGSQTLKRDKEKKNNPWLCTE

From PMC6140323
